Six molecules from PMC11905004 can be followed below.

Results are given in words; binding and its absence hold for the method and conditions named. Binding can be weak; no strength is given. For some of these results: Where a sequence is shown, tags or fusion partners need not be part of it. For some of these results: Binding seen in cells or lysates may run through a third protein.

In one assay the target is CTB6^K - BD (rice). As to the kind of experiment: two-hybrid; point-to-point; CTB6^K in pGBKT7 (BD), partners in pGADT7 (AD), yeast strain AH109; growth on SD-Trp-Leu-His-Ade at 30 °C.
The next assay deals with CTB6^K - GFP (rice). In words: co-IP; tagged proteins co-expressed in rice protoplasts; total protein extract incubated with GFP-Nanoab-Agarose beads at 4 °C for 2 h; 50 mM Tris-HCl pH 7.5, 150 mM NaCl, 10 mM MgCl2, 2% NP-40, 1 mM DTT; immunoblot. Background: A western blot detects proteins with antibodies after separation by electrophoresis.
The target in the next assay is CTB6^K - nLUC (rice). In words: split reporter; split-LUC complementation; nLUC and cLUC fusions transiently co-expressed in N. benthamiana leaves, 1 mM D-luciferin after 3 days.
The target in another assay is CTB6^T - nLUC (rice). The assay is described as above.
A further assay has as its target CTB6^K - YC (rice). As to the kind of experiment: split reporter; BiFC; YC and YN fusions co-transformed into rice protoplasts, YFP signal by confocal microscopy 14-16 h after transfection.

B1: CATB - AD (protein, UniProt Q0D9C4 1-492)
chain: MDPYKHRPSSGSNSTFWTTNSGAPVWNNNSALTVGERGPILLEDYHLIEKLAQFDRERIPERVVHARGASAKGFFEVTHDISHLTCADFLRAPGVQTPVIVRFSTVVHERGSPETLRDPRGFAVKFYTREGNFDLVGNNMPVFFIRDGMKFPDMVHAFKPSPKTNMQENWRIVDFFSHHPESLHMFSFLFDDVGIPLNYRHMEGFGVNTYTLINKDGKPHLVKFHWKPTCGVKCLLDDEAVTVGGTCHSHATKDLTDSIAAGNYPEWKLYIQTIDPDHEDRFDFDPLDVTKTWPEDIIPLQPVGRMVLNKNIDNFFAENEQLAFCPAIIVPGIHYSDDKLLQTRIFSYADTQRHRLGPNYLMLPVNAPKCAYHNNHHDGSMNFMHRDEEVNYFPSRFDAARHAEKVPIPPRVLTGCREKCVIDKENNFQQAGERYRSFDPARQDRFLQRWVDALSDPRITHELRGIWISYWSQCDASLGQKLASRLNLKPNM
For B1, in the assay with CTB6^K - BD (rice), the binding entry is given as “binds”.

B2: CATA - AD (protein, UniProt Q0E4K1 1-492)
chain: MDPCKFRPSSSFDTKTTTTNAGAPVWNDNEALTVGPRGPILLEDYHLIEKVAHFARERIPERVVHARGASAKGFFECTHDVTDITCADFLRSPGAQTPVIVRFSTVIHERGSPETIRDPRGFAVKFYTREGNWDLLGNNFPVFFIRDGIKFPDVIHAFKPNPRSHVQEYWRVFDFLSHHPESLHTFFFLFDDVGIPTDYRHMDGFGVNTYTFVTRDAKARYVKFHWKPTCGVSCLMDDEATLVGGKNHSHATQDLYDSIAAGNFPEWKLFVQVIDPEEEERFDFDPLDDTKTWPEDEVPLRPVGRLVLNRNVDNFFNENEQLAFGPGLVVPGIYYSDDKMLQCRVFAYADTQRYRLGPNYLMLPVNAPKCAHHNNHYDGAMNFMHRDEEVDYYPSRHAPLRHAPPTPITPRPVVGRRQKATIHKQNDFKQPGERYRSWAPDRQERFIRRFAGELAHPKVSPELRAIWVNYLSQCDESLGVKIANRLNVKPSM
B2: the binding result in the assay with CTB6^K - BD (rice) is “binds”.

B3: CATA - Myc (protein, UniProt Q0E4K1 1-492)
chain: MDPCKFRPSSSFDTKTTTTNAGAPVWNDNEALTVGPRGPILLEDYHLIEKVAHFARERIPERVVHARGASAKGFFECTHDVTDITCADFLRSPGAQTPVIVRFSTVIHERGSPETIRDPRGFAVKFYTREGNWDLLGNNFPVFFIRDGIKFPDVIHAFKPNPRSHVQEYWRVFDFLSHHPESLHTFFFLFDDVGIPTDYRHMDGFGVNTYTFVTRDAKARYVKFHWKPTCGVSCLMDDEATLVGGKNHSHATQDLYDSIAAGNFPEWKLFVQVIDPEEEERFDFDPLDDTKTWPEDEVPLRPVGRLVLNRNVDNFFNENEQLAFGPGLVVPGIYYSDDKMLQCRVFAYADTQRYRLGPNYLMLPVNAPKCAHHNNHYDGAMNFMHRDEEVDYYPSRHAPLRHAPPTPITPRPVVGRRQKATIHKQNDFKQPGERYRSWAPDRQERFIRRFAGELAHPKVSPELRAIWVNYLSQCDESLGVKIANRLNVKPSM
Regarding B3, the binding result with CTB6^K - GFP (rice) is “binds”.

B4: cLUC - CATA (protein, UniProt Q0E4K1 1-492)
chain: MDPCKFRPSSSFDTKTTTTNAGAPVWNDNEALTVGPRGPILLEDYHLIEKVAHFARERIPERVVHARGASAKGFFECTHDVTDITCADFLRSPGAQTPVIVRFSTVIHERGSPETIRDPRGFAVKFYTREGNWDLLGNNFPVFFIRDGIKFPDVIHAFKPNPRSHVQEYWRVFDFLSHHPESLHTFFFLFDDVGIPTDYRHMDGFGVNTYTFVTRDAKARYVKFHWKPTCGVSCLMDDEATLVGGKNHSHATQDLYDSIAAGNFPEWKLFVQVIDPEEEERFDFDPLDDTKTWPEDEVPLRPVGRLVLNRNVDNFFNENEQLAFGPGLVVPGIYYSDDKMLQCRVFAYADTQRYRLGPNYLMLPVNAPKCAHHNNHYDGAMNFMHRDEEVDYYPSRHAPLRHAPPTPITPRPVVGRRQKATIHKQNDFKQPGERYRSWAPDRQERFIRRFAGELAHPKVSPELRAIWVNYLSQCDESLGVKIANRLNVKPSM
As for B4, the binding result in the assay with CTB6^K - nLUC (rice) and with CTB6^T - nLUC (rice) was “binds” in each case.

B5: CATA - YN (protein, UniProt Q0E4K1 1-492)
chain: MDPCKFRPSSSFDTKTTTTNAGAPVWNDNEALTVGPRGPILLEDYHLIEKVAHFARERIPERVVHARGASAKGFFECTHDVTDITCADFLRSPGAQTPVIVRFSTVIHERGSPETIRDPRGFAVKFYTREGNWDLLGNNFPVFFIRDGIKFPDVIHAFKPNPRSHVQEYWRVFDFLSHHPESLHTFFFLFDDVGIPTDYRHMDGFGVNTYTFVTRDAKARYVKFHWKPTCGVSCLMDDEATLVGGKNHSHATQDLYDSIAAGNFPEWKLFVQVIDPEEEERFDFDPLDDTKTWPEDEVPLRPVGRLVLNRNVDNFFNENEQLAFGPGLVVPGIYYSDDKMLQCRVFAYADTQRYRLGPNYLMLPVNAPKCAHHNNHYDGAMNFMHRDEEVDYYPSRHAPLRHAPPTPITPRPVVGRRQKATIHKQNDFKQPGERYRSWAPDRQERFIRRFAGELAHPKVSPELRAIWVNYLSQCDESLGVKIANRLNVKPSM
On to B5, for which the binding result with CTB6^K - YC (rice) is on record as “binds”.

B6: CATC - AD (protein, UniProt Q10S82 1-492)
chain: MDPYKHRPSSSFNGPLWSTNSGAPVWNNNNSLTVGSRGPILLEDYHLVEKLANFDRERIPERVVHARGASAKGFFEVTHDITHLTCADFLRAPGVQTPVIVRFSTVIHERGSPETLRDPRGFAIKFYTREGNWDLVGNNFPVFFIRDGMKFPDMVHSLKPNPKSHVQENWRILDFFSHHPESLHMFTFLFDDIGIPADYRHMDGSGVNTYTLVNRAGKSHYVKFHWKPTCGVKSLLDDEAVTVGGTNHSHATQDLYDSIAAGNFPEWKLFIQTIDPDHEDRFDFDPLDVTKTWPEDIVPLQPVGRMVLNRNIDNFFSENEQLAFCPGIIVPGIYYSDDKLLQTRIFSYSDTQRHRLGPNYLLLPPNAPKCAHHNNHYDGFMNFMHRDEEVDYFPSRYDPAKHAPRYPIPSATLTGRREKVVIAKENNFKQPGERYRSWDPARQDRFIKRWIDALSDPRLTHEIRSIWLSYWSQADRSLGQKLASRLSAKPSM
Take B6: the binding entry with CTB6^K - BD (rice) is reported as “binds”.
